Measurements reported in the supplement of paper PMC8104966.
The list shows a part of the results. This data set is noisy: repeats of one test often differ as much as different tests do.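 U2OS cells carrying ACE2 were mixed with U2OS cells carrying full-length spike, and fusion was scored by imaging as the share of nuclei showing both cell types' fluorescent markers. A compound counts as an inhibitory hit when it is non-toxic and its fusion z-score falls below -3, meaning more than three standard deviations below the plate's DMSO wells.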

test system: U2OS ACE2 x SARS-CoV-2 spike co-culture; test: cell-cell fusion (fraction fused) z-score vs plate DMSO control; higher = more fusion; conditions: 30 µM; 5 h; toxicity class: non-toxic, passed QC

Compound | cell-cell fusion (z-score)
C[C@]12C=CC(=O)C=C1CC[C@@H]1[C@@H]2[C@@H](O)C[C@@]2(C)[C@H]1CC[C@]2(O)C(=O)COP(=O)([O-])[O-].[Na+].[Na+] [Prednisolone phosphate sodium] | inactive: 3.42
O=C1c2ccccc2C(=O)c2ccccc21 | inactive: 2.15
CC(=O)Oc1ccc2c(c1OC(C)=O)OCC1(O)Cc3c(cc(OC(C)=O)c(OC(C)=O)c3OC(C)=O)C21 (configuration not stated) | inactive: 2.08
CCCNC(C)C(=O)Nc1ccccc1C.Cl (configuration not stated) | inactive: 3.68
CC(C)(C)NC[C@@H](O)COc1nsnc1N1CCOCC1.O=C(O)/C=C\C(=O)O | inactive: 2.99
CN(C(=O)C(Cl)Cl)c1ccc(OC(=O)c2ccco2)cc1 | inactive: 4.77
CC(C)c1c(CN(C)C(C)Cc2ccccc2)n(C)n(-c2ccccc2)c1=O (configuration not stated) | inactive: 3.4
CCC(C)(C)C(=O)O[C@@H]1C[C@@H](C)C=C2C=C[C@H](C)[C@@H](CC[C@@H]3C[C@@H](O)CC(=O)O3)[C@H]21 [Simvastatin (Zocor)] | inactive: 2.51
CC(=O)OC1CCC23CC1(C)CCC2C(C)(C)CC3OC(C)=O (configuration not stated) | inactive: 2.22
CC[N+](CC)(CC)CCOc1cccc(OCC[N+](CC)(CC)CC)c1OCC[N+](CC)(CC)CC.[I-].[I-].[I-] [Gallamine triethiodide] | inactive: 0.978
CC[N+](CC)(CC)CCOc1cccc(OCC[N+](CC)(CC)CC)c1OCC[N+](CC)(CC)CC.[I-].[I-].[I-] | inactive: 0.125
CCCC[C@@H](CC)COC(=O)c1ccccc1O | inactive: 1.35
Cc1cc(O)c2c(c1)Cc1cccc(O)c1C2=O | inactive: 1.74
CCn1nc(C(=O)O)c(=O)c2cc3c(cc21)OCO3 [Cinoxacin] | inactive: 1.35
CC(C)c1c(C(=O)Nc2ccccc2)c(-c2ccccc2)c(-c2ccc(F)cc2)n1CC[C@@H](O)C[C@@H](O)CC(=O)[O-].CC(C)c1c(C(=O)Nc2ccccc2)c(-c2ccccc2)c(-c2ccc(F)cc2)n1CC[C@@H](O)C[C@@H](O)CC(=O)[O-].[Ca+2] [Atorvastatin Calcium] | inactive: 0.944
NC(=O)C1(N2CCCCC2)CCN(CCCC(=O)c2ccc(F)cc2)CC1 | inactive: 3.47
CCCN(CCC)CCc1cccc2c1CC(=O)N2.Cl [Ropinirole hydrochloride] | active: -3.09
CC(=O)[C@H]1CC[C@H]2[C@@H]3CC[C@H]4C[C@H](O)CC[C@]4(C)[C@H]3CC[C@]12C [Allopregnanolone] | inactive: 1.32
CC[C@@H](CO)NC(=O)[C@@H]1C=C2c3cccc4c3c(cn4C)C[C@H]2N(C)C1.O=C(O)/C=C\C(=O)O | inactive: 1.22
CC(=O)O.O=C(NCC1CCCCN1)c1cc(OCC(F)(F)F)ccc1OCC(F)(F)F (configuration not stated) | inactive: 0.975
CC(=O)[O][Hg][c]1ccccc1 | inactive: 4.01
N#C/C(=C\c1ccc(O)cc1)C(=O)O [alpha-CYANO-4-HYDROXYCINNAMIC ACID] | inactive: 3.76
CS(=O)(=O)O.C[C@H](NCc1ccc(OCc2cccc(F)c2)cc1)C(N)=O [Safinamide mesylate] | inactive: 0.204

Another view of some results above:
Compound,cell-cell fusion (z-score)
O=C1c2ccccc2C(=O)c2ccccc21,inactive: 2.15
CC(C)c1c(CN(C)C(C)Cc2ccccc2)n(C)n(-c2ccccc2)c1=O (configuration not stated),inactive: 3.4
CC(C)c1c(C(=O)Nc2ccccc2)c(-c2ccccc2)c(-c2ccc(F)cc2)n1CC[C@@H](O)C[C@@H](O)CC(=O)[O-].CC(C)c1c(C(=O)Nc2ccccc2)c(-c2ccccc2)c(-c2ccc(F)cc2)n1CC[C@@H](O)C[C@@H](O)CC(=O)[O-].[Ca+2] [Atorvastatin Calcium],inactive: 0.944
NC(=O)C1(N2CCCCC2)CCN(CCCC(=O)c2ccc(F)cc2)CC1,inactive: 3.47
CC(=O)[O][Hg][c]1ccccc1,inactive: 4.01

(listing goes on)

Compound | cell-cell fusion (z-score)
CC1C(=O)O[C@H]2C1CCC1(C)CCC(=O)[C@@H](C)[C@H]21 (some centres not stated) | inactive: 2.63
C[N+](C)(C)CCO.[Br-] [Choline bromide] | inactive: 2.73
COc1ccc(CC2c3cc(OC)c(OC)cc3CC[N+]2(C)CCC(=O)OCCCCCOC(=O)CC[N+]2(C)CCc3cc(OC)c(OC)cc3C2Cc2ccc(OC)c(OC)c2)cc1OC.O=S(=O)([O-])c1ccccc1.O=S(=O)([O-])c1ccccc1 (configuration not stated) [Atracurium besylate] | inactive: 1.25
Nc1nc(N)c2nc(-c3cccc(O)c3)cnc2n1 | inactive: -2.25
COP(=S)(OC)Oc1cc(Cl)c(Cl)cc1Cl | inactive: 1.75
S=P(N1CC1)(N1CC1)N1CC1 | inactive: 2.26
S=P(N1CC1)(N1CC1)N1CC1 [Triethylenethiophosphoramide] | inactive: 1.37
C[C@H](NC(=O)/C(C#N)=C/c1ccc(O)c(O)c1)c1ccccc1 [Tyrphostin AG 835] | inactive: -0.255
CSc1nc2cc(Oc3cccc(Cl)c3Cl)c(Cl)cc2[nH]1 [Triclabendazole] | inactive: -1.07
C=C(C)C1CC=C(C(=O)O)CC1 (single isomer, unassigned; (-)) [(-)-Perillic acid] | inactive: 0.807
O=C1CCCC2C3CC(CN12)[C@@H]1CCCCN1C3.[O-][Cl+3]([O-])([O-])O (some centres not stated) | inactive: 2.84
CC[C@@H]1OC(OC(c2c[nH]cn2)C(NC(=O)c2nc(C(CC(N)=O)NCC(N)C(N)=O)nc(N)c2C)C(=O)NC(C)C(O)C(C)C(=O)NC(C(=O)NCCc2nc(-c3nc(C(=O)NCCCCNC(=N)N)cs3)cs2)C(C)O)[C@@H](O[C@H]2O[C@H](CO)[C@@H](O)[C@H](OC(N)=O)[C@@H]2O)[C@@H](C)[C@@H]1C.O=S(=O)(O)O.O=S(=O)(O)O (some centres not stated) [BLEOMYCIN (bleomycin B2 shown)] | inactive: 2.52
CCCCOc1cc(C(=O)OCCN(CC)CC)ccc1N.Cl | inactive: 1.04
Cc1c(C)c2c(c(C)c1O)CCC(C)(COc1ccc(CC3SC(=O)NC3=O)cc1)O2 (configuration not stated) [Troglitazone] | inactive: 2.32
Nc1nc(=O)c2c([nH]1)NC[C@H](CCc1ccc(C(=O)N[C@@H](CCC(=O)O)C(=O)O)cc1)C2 [Lometrexol hydrate] | inactive: 2.76
Cc1c(N(C)C)c(=O)n(-c2ccccc2)n1C | inactive: 2.69
C[C@]12CCC(=O)C=C1CC[C@@H]1[C@H]2[C@H](O)C[C@@]2(C)[C@H]1CC[C@@]2(O)C(=O)CO [Hydrocortisone (Cortisol)] | inactive: 1.49
COc1cc2ncc(-c3ccccc3)nc2cc1OC [Tyrphostin AG 1296] | inactive: -1.19
CC(C)NCC(O)c1ccc(O)c(O)c1.Cl (configuration not stated) | inactive: -0.117
C[C@@H]1C[C@H]2[C@@H]3CCC4=CC(=O)C=C[C@]4(C)[C@]3(F)[C@H](O)C[C@]2(C)[C@]1(O)C(=O)CO [Dexamethasone] | inactive: 1.66
CC(C)NCC(O)c1ccc(NS(C)(=O)=O)cc1.Cl (racemic) [(±)-Sotalol hydrochloride] | inactive: 1.46
OC1(c2ccc(Cl)cc2)CCN(Cc2c[nH]c3ccccc23)CC1 | inactive: 2.71
CCOc1ccc(NC(C)=O)cc1 | inactive: 2.77

Compound | cell-cell fusion (z-score)
O=C1Cc2c([nH]c3ccc(Br)cc23)-c2ccccc2N1 [Kenpaullone] | inactive: 1.47
Cc1cnc(NC(=O)C2=C(O)c3ccccc3S(=O)(=O)N2C)s1 [Meloxicam] | inactive: 3.57
Cl.NC(Cc1ccc(Cl)cc1)C(=O)O (racemic) | inactive: 0.907
C[N+](C)(C)CC#CCOC(=O)Nc1cccc(Cl)c1.[Cl-] | inactive: 1.73
Cl.c1ccc2c(c1)CN1CCCC1=N2 | inactive: 1.98
CC[C@@]1(O)C[C@H](O)c2c(cc3c(c2O)C(=O)c2c(O)ccc(O)c2C3=O)[C@H]1C(=O)OC | inactive: 1.71
Cl.N=C(N)NN [Aminoguanidine hydrochloride] | inactive: 2.25
Cl.N=C(N)NN | inactive: 1.46
CC(C)c1nc(N(C)S(C)(=O)=O)nc(-c2ccc(F)cc2)c1/C=C/[C@@H](O)C[C@@H](O)CC(=O)[O-].[Ca+2] | inactive: 0.791
CC1(C)O[C@@H]2C[C@H]3[C@@H]4CCC5=CC(=O)CC[C@]5(C)[C@@]4(F)[C@@H](O)C[C@]3(C)[C@]2(C(=O)CCl)O1 [Halcinonide] | inactive: 4.76
COc1c(-c2coc3cc4c(cc3c2=O)CC(OC(C)=O)C(C)(C)O4)ccc2c1C=CC(C)(C)O2 (configuration not stated) | inactive: 2.06
CC(O)CC(C)(C)O (configuration not stated) | inactive: 2.71
CCOC(=O)c1ccc(O)cc1 | inactive: 4.8
COc1ccc2c(=O)cc(-c3ccccc3OC)oc2c1 | inactive: 2.01
CC(=O)O[C@@H]1C2CC[C@@H]3C1(C[C@@H](O)[C@@]1(O)[C@@H](C[C@H](O)C1(C)C)[C@]3(C)O)C[C@@]2(C)O (some centres not stated) | inactive: 2.55
NC(=O)c1cccnc1 [Nicotinamide] | inactive: 2.6
O=C1[O][Bi]([OH])[O]c2ccccc21 | inactive: 2.73
CC(=O)O[C@H]1C(=O)[C@@]2(C)C([C@H](OC(=O)c3ccccc3)[C@]3(O)C[C@H](OC(=O)[C@H](O)[C@@H](NC(=O)c4ccccc4)c4ccccc4)C(C)=C1C3(C)C)[C@]1(OC(C)=O)CO[C@@H]1C[C@H]2O (some centres not stated) [Paclitaxel (Taxol)] | inactive: 1.78
COc1cc2ncnc(-n3nc(-c4ccccn4)nc3N)c2cc1OC | inactive: 1.48
CC(=O)O[C@H]1C[C@@H](OC(C)=O)C(C)(C)C2C[C@@H](OC(C)=O)[C@]3(C)C(CC[C@@]4(C)[C@H](c5ccoc5)OC(=O)[C@H]5O[C@]543)[C@]21C (some centres not stated) | inactive: 2.27
Cc1cc2nc3c(=O)[nH]c(=O)nc-3n(C[C@H](O)[C@H](O)[C@H](O)COP(=O)([O-])O)c2cc1C.[Na+] [Flavin mononucleotide] | inactive: 2.68
